# Results taken from PubChem BioAssay AID853 (Columbia University Molecular Screening Center, 2007).
# This is one part of the list.
# Assay: removal of polyQ htt aggregates in HeLa – imaging, HeLa Exon1htt(103Q)mCFP, confocal imaging, primary screen (AID 853);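 further: cells exposed to compound for three days before fixation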
# Conditions: aggregate imaging, measured here: aggregate grain fluorescence fraction, at 1.5 µM, stronger effect = lower value
row,SMILES,fraction fluorescence in grains
1,COc1ccc(NC2CCN(CCc3ccccc3)CC2)c(OC)c1,51.5
2,N#CC1(Nc2ccccc2)CCN(CCc2ccccc2)CC1,30.7
